Assay results as given in patent publication US20230039395A1, “LSD AND […] EQUIVALENCE DETERMINATION” (Universitätsspital Basel, priority 2021, published 2023).

Test: Treatment identification (blinding), retrospective guess of treatment

With `CCN(CC)C(=O)[C@@H]1C=C2c3cccc4[nH]cc(c34)C[C@H]2N(C)C1` [LSD, lysergic acid diethylamide] the sessions correctly identified (100 μg LSD) was 57%, the “sessions mistaken as 15 mg psilocybin” value (100 μg LSD) was 18% and the sessions correctly identified (200 μg LSD) was 61%. For the same compound, the “sessions mistaken as 100 μg LSD” value (200 μg LSD) was 18%.
